Laboratory results from US20050053592A1.
No constants are given. Whether binding was seen depends on the method and setting. For some assays here: In cells and extracts the contact can be indirect. Some results given as binding are weak or reduced against the parent protein; the word gives no strength. For some assays here: Sequences can lack the tags named with a protein. Blank lines part the entries; values can stand above or below the binder they belong to.

Columns and labels:
[1] = target: T1, endogenous Hpo protein (Hippo) from S2 cell extracts (Drosophila) (UniProt Q8T0S6); assay: GST pull-down from S2 cell lysates (FIG. 6B legend)
T1 sequence: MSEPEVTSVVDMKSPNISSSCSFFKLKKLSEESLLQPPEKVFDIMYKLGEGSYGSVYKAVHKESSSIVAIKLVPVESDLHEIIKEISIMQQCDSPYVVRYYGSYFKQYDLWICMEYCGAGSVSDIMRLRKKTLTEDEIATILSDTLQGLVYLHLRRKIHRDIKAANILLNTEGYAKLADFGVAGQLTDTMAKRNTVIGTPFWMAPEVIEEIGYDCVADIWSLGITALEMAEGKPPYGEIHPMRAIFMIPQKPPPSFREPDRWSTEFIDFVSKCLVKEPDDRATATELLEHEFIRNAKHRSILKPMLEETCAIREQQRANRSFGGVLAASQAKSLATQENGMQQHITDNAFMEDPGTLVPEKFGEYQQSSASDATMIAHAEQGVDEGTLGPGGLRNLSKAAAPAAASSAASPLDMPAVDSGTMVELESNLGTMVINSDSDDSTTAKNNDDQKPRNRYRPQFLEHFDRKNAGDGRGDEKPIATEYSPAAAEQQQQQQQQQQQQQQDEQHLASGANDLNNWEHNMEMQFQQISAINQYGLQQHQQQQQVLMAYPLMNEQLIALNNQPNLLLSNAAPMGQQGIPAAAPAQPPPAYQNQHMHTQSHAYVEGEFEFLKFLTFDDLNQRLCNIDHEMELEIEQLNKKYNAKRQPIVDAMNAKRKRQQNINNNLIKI

[2] = target: T1, endogenous Hpo protein (Hippo) from S2 cell extracts (Drosophila); assay: GST pull-down from S2 cell lysates, blot with anti-Hpo antibody
[3] = target: T2, C-terminal half of Sav (residue 362-607) (Drosophila) (UniProt Q9VCR6); assay: yeast two-hybrid screen, Hpo bait (FIG. 6A legend)
T2 sequence (looked up): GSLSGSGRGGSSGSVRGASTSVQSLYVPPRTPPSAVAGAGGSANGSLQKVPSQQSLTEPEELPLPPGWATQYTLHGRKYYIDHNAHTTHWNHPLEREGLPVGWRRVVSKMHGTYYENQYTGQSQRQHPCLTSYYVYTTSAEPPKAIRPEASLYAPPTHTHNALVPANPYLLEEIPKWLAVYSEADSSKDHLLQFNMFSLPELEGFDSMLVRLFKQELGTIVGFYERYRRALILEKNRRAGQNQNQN

[4] = target: T2, C-terminal half of Sav (residue 362-607) (Drosophila); assay: yeast two-hybrid screen (CytoTrap), Hpo C-terminal portion as bait, Drosophila cDNA library
[5] = target: T3, C-terminal portion of Hpo (residue 474-669), Sav-interacting Hpo clones (Drosophila) (UniProt Q8T0S6); assay: yeast two-hybrid screen (CytoTrap), Sav C-terminal half as bait, Drosophila cDNA library
T3 sequence: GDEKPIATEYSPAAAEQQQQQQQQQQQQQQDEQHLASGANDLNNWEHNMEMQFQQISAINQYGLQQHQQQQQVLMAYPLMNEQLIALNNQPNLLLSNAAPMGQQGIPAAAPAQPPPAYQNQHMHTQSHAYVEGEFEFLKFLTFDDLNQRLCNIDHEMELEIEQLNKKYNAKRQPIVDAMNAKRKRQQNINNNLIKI

[6] = target: T3, C-terminal portion of Hpo (residue 474-669), Sav-interacting Hpo clones (Drosophila); assay: yeast two-hybrid screen, Sav bait (FIG. 6A legend)
[7] = target: T4, Myc-tagged Hpo (Drosophila) (UniProt Q8T0S6); assay: co-immunoprecipitation from S2 cells (FIG. 7F legend)
T4 sequence: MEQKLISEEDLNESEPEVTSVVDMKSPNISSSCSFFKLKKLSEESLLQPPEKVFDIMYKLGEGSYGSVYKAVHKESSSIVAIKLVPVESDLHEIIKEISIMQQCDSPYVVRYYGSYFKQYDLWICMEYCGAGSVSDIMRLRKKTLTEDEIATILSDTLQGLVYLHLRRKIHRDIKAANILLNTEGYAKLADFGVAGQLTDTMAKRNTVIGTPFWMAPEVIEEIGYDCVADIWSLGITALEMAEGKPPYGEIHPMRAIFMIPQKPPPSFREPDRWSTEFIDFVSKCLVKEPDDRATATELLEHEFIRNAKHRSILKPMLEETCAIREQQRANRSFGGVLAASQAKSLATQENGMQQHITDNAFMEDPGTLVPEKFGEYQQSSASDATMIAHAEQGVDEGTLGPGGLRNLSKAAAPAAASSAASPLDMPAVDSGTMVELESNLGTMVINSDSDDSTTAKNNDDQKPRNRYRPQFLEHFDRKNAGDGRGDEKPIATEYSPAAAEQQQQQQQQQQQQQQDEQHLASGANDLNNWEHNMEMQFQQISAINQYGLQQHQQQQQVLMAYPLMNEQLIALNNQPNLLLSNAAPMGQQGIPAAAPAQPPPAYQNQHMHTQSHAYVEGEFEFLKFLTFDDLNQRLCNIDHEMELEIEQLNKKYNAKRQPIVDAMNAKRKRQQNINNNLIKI

[8] = target: T4, Myc-tagged Hpo (Drosophila); assay: co-immunoprecipitation from S2 cells

binding [3]: binds
binding [4]: binds
B2: non-catalytic C-terminal portion of Hpo (yeast two-hybrid bait) (protein)
chain: ANRSFGGVLAASQAKSLATQENGMQQHITDNAFMEDPGTLVPEKFGEYQQSSASDATMIAHAEQGVDEGTLGPGGLRNLSKAAAPAAASSAASPLDMPAVDSGTMVELESNLGTMVINSDSDDSTTAKNNDDQKPRNRYRPQFLEHFDRKNAGDGRGDEKPIATEYSPAAAEQQQQQQQQQQQQQQDEQHLASGANDLNNWEHNMEMQFQQISAINQYGLQQHQQQQQVLMAYPLMNEQLIALNNQPNLLLSNAAPMGQQGIPAAAPAQPPPAYQNQHMHTQSHAYVEGEFEFLKFLTFDDLNQRLCNIDHEMELEIEQLNKKYNAKRQPIVDAMNAKRKRQQNINNNLIKI

binding [7]: binds
binding [8]: binds
B4: Flag-tagged Sav (wild-type) (protein, Drosophila)
chain: MDYKDDDDKNYLTILLCNRKPTMLSRRNKEKSQHKEGVVGKYMKKDTPPDISVINVWSDQRAKKKSLQRCASTSPSCEFHPRSSSTSRNTYSCTDSQPDYYHARRAQSQMPLQQHSHSHPHSLPHPSHPHVRSHPPLPPHQFRASSNQLSQNSSNYVNFEQIERMRRQQSSPLLQTTSSPAPGAGGFQRSYSTTQRQHHPHLGGDSYDADQGLLSASYANMLQLPQRPHSPAHYAVPPQQQQHPQIHQQHASTPFGSTLRFDRAAMSIRERQPRYQPTSSPMQQQQQQQQQQQQQLQHTQLAAHLGGSYSSDSYPIYENPSRVISMRATQSQRSESPIYSNTTASSATLAVVPQHHHQGHLAVPSGSGGGSLSGSGRGGSSGSVRGASTSVQSLYVPPRTPPSAVAGAGGSANGSLQKVPSQQSLTEPEELPLPPGWATQYTLHGRKYYIDHNAHTTHWNHPLEREGLPVGWRRVVSKMHGTYYENQYTGQSQRQHPCLTSYYVYTTSAEPPKAIRPEASLYAPPTHTHNALVPANPYLLEEIPKWLAVYSEADSSKDHLLQFNMFSLPELEGFDSMLVRLFKQELGTIVGFYERYRRALILEKNRRAGQNQNQN

The remaining lines, values behind:

B1: GST fusion protein containing full-length Sav (protein, UniProt Q9VCR6 1-608, looked up, not shown: a dimerising Fc or GST)
chain: MNYLTILLCNRKPTMLSRRNKEKSQHKEGVVGKYMKKDTPPDISVINVWSDQRAKKKSLQRCASTSPSCEFHPRSSSTSRNTYSCTDSQPDYYHARRAQSQMPLQQHSHSHPHSLPHPSHPHVRSHPPLPPHQFRASSNQLSQNSSNYVNFEQIERMRRQQSSPLLQTTSSPAPGAGGFQRSYSTTQRQHHPHLGGDSYDADQGLLSASYANMLQLPQRPHSPAHYAVPPQQQQHPQIHQQHASTPFGSTLRFDRAAMSIRERQPRYQPTSSPMQQQQQQQQQQQQQLQHTQLAAHLGGSYSSDSYPIYENPSRVISMRATQSQRSESPIYSNTTASSATLAVVPQHHHQGHLAVPSGSGGGSLSGSGRGGSSGSVRGASTSVQSLYVPPRTPPSAVAGAGGSANGSLQKVPSQQSLTEPEELPLPPGWATQYTLHGRKYYIDHNAHTTHWNHPLEREGLPVGWRRVVSKMHGTYYENQYTGQSQRQHPCLTSYYVYTTSAEPPKAIRPEASLYAPPTHTHNALVPANPYLLEEIPKWLAVYSEADSSKDHLLQFNMFSLPELEGFDSMLVRLFKQELGTIVGFYERYRRALILEKNRRAGQNQNQNQ
binding [1]: binds
binding [2]: binds

B3: C-terminal half of Sav (residue 362-607) (protein, Drosophila, UniProt Q9VCR6 362-607, looked up)
chain: GSLSGSGRGGSSGSVRGASTSVQSLYVPPRTPPSAVAGAGGSANGSLQKVPSQQSLTEPEELPLPPGWATQYTLHGRKYYIDHNAHTTHWNHPLEREGLPVGWRRVVSKMHGTYYENQYTGQSQRQHPCLTSYYVYTTSAEPPKAIRPEASLYAPPTHTHNALVPANPYLLEEIPKWLAVYSEADSSKDHLLQFNMFSLPELEGFDSMLVRLFKQELGTIVGFYERYRRALILEKNRRAGQNQNQN
binding [5]: binds
binding [6]: binds
